This passage reports binding results from paper PMC6153294.

Sequences of proteins named here, by UniProt entry; tags and fusion partners are left off. A change or cut given only in a name is not applied to a line headed by its entry. Residues count along the entry.
UniProt Q9NSA1, residues 29-209: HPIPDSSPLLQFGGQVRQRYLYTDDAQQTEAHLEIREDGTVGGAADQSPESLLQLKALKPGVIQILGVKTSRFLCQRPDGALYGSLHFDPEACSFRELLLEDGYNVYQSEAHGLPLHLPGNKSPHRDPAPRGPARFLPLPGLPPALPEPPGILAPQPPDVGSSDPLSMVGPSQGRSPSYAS
UniProt Q86Z14: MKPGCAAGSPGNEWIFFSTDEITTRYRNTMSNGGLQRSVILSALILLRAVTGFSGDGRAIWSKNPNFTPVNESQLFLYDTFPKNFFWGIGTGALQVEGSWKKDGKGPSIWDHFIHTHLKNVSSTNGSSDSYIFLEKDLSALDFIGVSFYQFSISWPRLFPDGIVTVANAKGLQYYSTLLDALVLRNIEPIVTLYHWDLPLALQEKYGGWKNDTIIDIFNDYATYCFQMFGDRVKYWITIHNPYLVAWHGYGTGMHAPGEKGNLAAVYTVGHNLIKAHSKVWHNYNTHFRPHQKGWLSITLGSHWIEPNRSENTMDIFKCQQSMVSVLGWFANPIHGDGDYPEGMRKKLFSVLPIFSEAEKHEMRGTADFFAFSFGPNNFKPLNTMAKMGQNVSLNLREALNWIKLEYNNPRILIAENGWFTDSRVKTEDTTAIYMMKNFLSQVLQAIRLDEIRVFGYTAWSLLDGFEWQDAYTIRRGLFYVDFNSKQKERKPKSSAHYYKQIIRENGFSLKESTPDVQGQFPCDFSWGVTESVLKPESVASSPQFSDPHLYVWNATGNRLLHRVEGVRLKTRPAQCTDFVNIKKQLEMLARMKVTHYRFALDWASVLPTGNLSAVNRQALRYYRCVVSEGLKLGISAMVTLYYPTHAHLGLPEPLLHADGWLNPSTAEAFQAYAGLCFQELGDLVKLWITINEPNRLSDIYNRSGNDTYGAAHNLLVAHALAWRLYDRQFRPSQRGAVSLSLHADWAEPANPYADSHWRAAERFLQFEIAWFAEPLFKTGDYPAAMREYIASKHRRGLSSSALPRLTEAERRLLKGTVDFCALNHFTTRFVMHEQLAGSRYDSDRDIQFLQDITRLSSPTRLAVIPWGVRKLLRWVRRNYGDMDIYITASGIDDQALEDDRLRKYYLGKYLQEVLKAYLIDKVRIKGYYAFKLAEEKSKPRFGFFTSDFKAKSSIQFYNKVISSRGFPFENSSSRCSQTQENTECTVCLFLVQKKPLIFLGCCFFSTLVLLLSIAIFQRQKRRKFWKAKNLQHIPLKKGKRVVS

Results are given in words; binding and its absence hold for the method and conditions named. Binding calls can cover weak binding; strength is not graded here.

For the assay, the target named is Fibroblast growth factor 21 (UniProt Q9NSA1). The experiment in a line: SPR; competition-binding assay on Biacore T200: 10 nM human β-Klotho incubated with 10 nM and 100 nM 39F7 or FGF21 in PBS, 0.1 mg/ml BSA, 0.005% Surfactant P20, 1 h at room temperature; free β-Klotho measured over amine immobilized FGF21; both purified. A general note: Surface plasmon resonance follows binding to a sensor surface in real time, without labels.

On to “human β-Klotho (His-tagged recombinant protein of the Biacore assays) (from UniProt Q86Z14) (receptor)”, for which the binding result is listed as “binds”.
